Measured values taken from the supplement of paper PMC5949888.
± gives the standard deviation of the averaged measurements. Most values lie at the floor of the assay. Slopes are relative: functional sequences can read slightly below zero.

System: Saccharomyces cerevisiae PS128 hsf1 delta, HSF1(1-493) fusion
Assay: growth estimate (transactivation domain function in HSF1 fusion, heat-shock survival) (a.u. (slope of normalised read count over time)); higher = stronger growth at 37°C, i.e. more transactivation activity
Conditions: library: random library

Row | Substance | growth estimate
1 | LVFYSKSSLVGTEDIIDTPF | < -0.25
2 | LVG | < -0.25
3 | LVGAPIPSNCPRTIKASTCA | < -0.25
4 | LVGC | < -0.25
5 | LVGISRVRGSTVCTRGGGIF | < -0.25
6 | LVGKYEWVCVVKSAQSDQSP | -0.245
7 | LVGMLTRRP | < -0.25
8 | LVGPVGLCNYIRLSTGLCQI | 0.139
9 | LVGTQRCRFKLIRRGATTSA | -0.245
10 | LVIAFPNTAGKTSVAGSVPF | < -0.25
11 | LVIKQHNYSTITGGP | < -0.25
12 | LVK | < -0.25
13 | LVKGNRYR | < -0.25
14 | LVKRGESKHT | < -0.25
15 | LVLEFRNVSSQMRWVCFGRD | < -0.25
16 | LVLEIGTLTFRKRRKPTRPR | < -0.25
17 | LVLELSLLFDIKVRELHDGL | < -0.25
18 | LVLIPSTT | < -0.25
19 | LVNGVVSHPRRVKVKAPFPD | < -0.25
20 | LVNVTPRAL | < -0.25
21 | LVPKNE | < -0.25
22 | LVPPVHYIVKAQVYSDLGRG | < -0.25
23 | LVPSSFYRKPTIHEHHGPVQ | -0.245
24 | LVQGPENISLGVGFHRGNRK | < -0.25

Row | Substance | growth estimate
25 | LVQSTFPY | < -0.25
26 | LVR | -0.248 ± 0.003
27 | LVRARAWYRKVNCRQDLRAV | < -0.25
28 | LVRISRHGNEIRNHVALGSW | < -0.25
29 | LVRLHSSLELIRPELNLANE | < -0.25
30 | LVRMEFRRGHARVRQSEVGS | < -0.25
31 | LVRRLRCPDAATGTSVTPTA | < -0.25
32 | LVRS | < -0.25
33 | LVRWTTSARSI | < -0.25
34 | LVSCG | < -0.25
35 | LVSPKKPGIMEPEPDPPCRG | < -0.25
36 | LVSSLELAISDSIRKQRIPA | < -0.25
37 | LVTGYLSEGTGSR | < -0.25
38 | LVVAGWSRIASK | < -0.25
39 | LVVGPPI | < -0.25
40 | LVVIHAFSSMSRGSARIG | < -0.25
41 | LVVTKISRRATK | < -0.25
42 | LVWNKLAEVLLSPMHLFSDP | < -0.25
43 | LVYGQ | < -0.25
44 | LVYRIR | -0.193
45 | LWAC | < -0.25
46 | LWAEVREIIPADCSGRAPGL | < -0.25
47 | LWAHSIMVRRVRLKLSTLSA | < -0.25
48 | LWANAHAVLATASPSKMSQR | < -0.25

A second format for part of the listing above.

| Row | Substance | growth estimate |
| --- | --- | --- |
| 3 | LVGAPIPSNCPRTIKASTCA | < -0.25 |
| 5 | LVGISRVRGSTVCTRGGGIF | < -0.25 |
| 12 | LVK | < -0.25 |
| 30 | LVRMEFRRGHARVRQSEVGS | < -0.25 |
| 31 | LVRRLRCPDAATGTSVTPTA | < -0.25 |
| 37 | LVTGYLSEGTGSR | < -0.25 |

(cont.)

Row | Substance | growth estimate
49 | LWAPFH | < -0.25
50 | LWCEMAV | < -0.25
51 | LWFILVLSQWARISKFAQGD | < -0.25
52 | LWGGRQLRYRAPILFA | < -0.25
53 | LWGGVGVTTDE | -0.211
54 | LWGLIYWLLGVNLRRNLLYV | < -0.25
55 | LWGQSRVITPYLCHGVADRR | < -0.25
56 | LWGSAVVLAGWDMPFTWRVW | < -0.25
57 | LWHRARAGA | < -0.25
58 | LWISDGARLSSMDRSLGHGS | < -0.25
59 | LWLGDSL | < -0.25
60 | LWNLCP | < -0.25
61 | LWPGI | < -0.25
62 | LWRLSEVAGLAPFPRRKGGV | < -0.25
63 | LWSILTIYEYAA | < -0.25
64 | LWVHGTYCTALRLWAQPSCG | < -0.25
65 | LWVMKARAKCQTHGRSGSET | < -0.25
66 | LWYASRA | < -0.25
67 | LYAVLDSVRRGS | < -0.25
68 | LYAVYVLSPIGLG | < -0.25
69 | LYDPGTTGRACQQHHVEASH | < -0.25
70 | LYELGLKGAVLPFCRRPTLR | < -0.25
71 | LYELHAVPSLILCLARY | < -0.25
72 | LYFLGGVKVCSATALLVKSS | < -0.25

Row | Substance | growth estimate
73 | LYFLRRLGYGYCGTRESLDR | < -0.25
74 | LYGGLIGTTVWKPSARDGRT | < -0.25
75 | LYGKIGHGPTKRFR | < -0.25
76 | LYGSDCHYLNSASYIN | < -0.25
77 | LYGVKK | < -0.25
78 | LYHNGYARGTRLLGGV | < -0.25
79 | LYKDFNVRAPCNKLQCKFRA | < -0.25
80 | LYLDRFELY | -0.239
81 | LYLGLKS | < -0.25
82 | LYLQVMCR | < -0.25
83 | LYLRMRYTLGSASREPLNSQ | < -0.25
84 | LYNGGGTPRRRLGNTVLRPI | < -0.25
85 | LYPLRSLSKISDKA | < -0.25
86 | LYRGHQPARCYGASDEEAAR | < -0.25
87 | LYRMWADSNKSDYRTRPIHS | < -0.25
88 | LYSARIRKGARWLAVLARYF | < -0.25
89 | LYSS | < -0.25
90 | LYSVIRQRGVVDFEQESMLR | < -0.25
91 | LYTVLALDARAGSR | < -0.25
92 | LYTYGGPYTGSCGSLRERNG | < -0.25
93 | LYVCLGG | < -0.25
94 | LYVGSAESGSWM | < -0.25
95 | LYVRCPAGPSGRPVAQRMSV | < -0.25
96 | LYWGISVCVVLELALIRSNN | < -0.25

Row | Substance | growth estimate
97 | LYYQSGHPGQKCPG | < -0.25
98 | MAGYCRLAALGDSGASPDSA | < -0.25
99 | MAQLAASLPRIYGGTGKDER | < -0.25
100 | MARPRFVHARELS | < -0.25
101 | MARTRRPRNLVGRGDAGLGT | < -0.25
102 | MASLV | < -0.25
103 | MATNRDFAMGEL | < -0.25
104 | MAVISAPQPYVI | < -0.25
105 | MCIMRT | < -0.25
106 | MCLLAS | < -0.25
107 | MCQYSSMKLGHNGLRN | < -0.25
108 | MDLGILDTAKSCVLSRRFRQ | < -0.25
109 | MDRREGPRLTRKLKVDALR | < -0.25
110 | MDRRFT | < -0.25
111 | MEATALNIVCTYR | < -0.25
112 | MEGCYIFGCDRLGGPAKPWW | -0.224
113 | MELHLVSTGITTYRVGRVNP | < -0.25
114 | MESLASPEGYMRR | < -0.25
115 | MEWVK | < -0.25
116 | MFADVSGTHKIHDVFSP | < -0.25
117 | MFERGHASNIHAPVPWGLRD | < -0.25
118 | MFGHQSTVCLRISSTYMAMT | < -0.25
119 | MFI | < -0.25
120 | MFMGAPSASRRNMGLSNFIK | < -0.25

Row | Substance | growth estimate
121 | MFN | -0.229
122 | MFPSDAVKSDSFIFPCIAAR | < -0.25
123 | MFSISMGDREISQSGDCLTR | < -0.25
124 | MFVGRRTLLVLTRNRSLDSR | < -0.25
125 | MFWTWNNAVRSTRRGFSGTN | < -0.25
126 | MGAWAIGQAGGPQLCQEVRS | < -0.25
127 | MGDGLLFPSKLINYDD | < -0.25
128 | MGECF | < -0.25
129 | MGERLVGAASCVHRACSSFA | < -0.25
130 | MGERTNHVR | < -0.25
131 | MGFSPSFDLLSVLTLPLMSV | < -0.25
132 | MGGESASEGIVNAYVHTIAQ | < -0.25
133 | MGGTQAGRI | < -0.25
134 | MGGYNRGHGVADRKGMMSKR | < -0.25
135 | MGHAALRECSTLIIPTLQST | < -0.25
136 | MGIIRTDKPIQLVR | < -0.25
137 | MGKAQILVKSVSMCN | < -0.25
138 | MGKSSTPGRASRTSSCHRAH | < -0.25
139 | MGLGITSFAVPG | < -0.25
140 | MGPAFKDLRCISLRYLR | < -0.25
141 | MGSEEIPPQIGNVH | < -0.25
142 | MGSSLGSIFVNRRDPLLTRS | < -0.25
143 | MGVAAIVTPSTVQLPPSHDT | < -0.25
144 | MHFSWRQLVR | -0.206
